Test results taken from the supplement of paper PMC10849652.
The list shows a part of the results.

Protein sequences, listed by entry. Tags and fused reporters are not part of them. Lines headed by an entry give the natural chain unless they say otherwise; changes in a name come on top.
UniProt Q9Y6H3: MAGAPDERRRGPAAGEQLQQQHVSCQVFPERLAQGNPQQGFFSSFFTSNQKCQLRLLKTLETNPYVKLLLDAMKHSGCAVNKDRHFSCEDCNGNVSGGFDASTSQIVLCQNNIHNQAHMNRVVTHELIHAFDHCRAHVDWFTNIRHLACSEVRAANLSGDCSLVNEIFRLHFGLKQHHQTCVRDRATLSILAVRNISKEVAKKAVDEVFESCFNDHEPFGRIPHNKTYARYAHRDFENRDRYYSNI
UniProt Q9UBB4: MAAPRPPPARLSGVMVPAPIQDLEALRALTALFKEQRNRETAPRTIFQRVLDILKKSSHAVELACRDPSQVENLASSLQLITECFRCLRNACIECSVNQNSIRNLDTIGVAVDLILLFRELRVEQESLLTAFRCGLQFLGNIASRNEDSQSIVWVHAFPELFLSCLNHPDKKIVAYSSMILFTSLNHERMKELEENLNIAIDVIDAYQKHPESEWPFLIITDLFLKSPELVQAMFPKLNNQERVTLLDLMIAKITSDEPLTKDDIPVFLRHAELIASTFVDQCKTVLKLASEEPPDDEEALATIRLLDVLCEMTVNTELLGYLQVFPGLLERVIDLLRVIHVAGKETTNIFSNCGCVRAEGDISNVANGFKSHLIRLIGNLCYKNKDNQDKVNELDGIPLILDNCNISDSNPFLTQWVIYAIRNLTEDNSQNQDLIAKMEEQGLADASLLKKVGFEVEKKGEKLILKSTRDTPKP
UniProt O95671: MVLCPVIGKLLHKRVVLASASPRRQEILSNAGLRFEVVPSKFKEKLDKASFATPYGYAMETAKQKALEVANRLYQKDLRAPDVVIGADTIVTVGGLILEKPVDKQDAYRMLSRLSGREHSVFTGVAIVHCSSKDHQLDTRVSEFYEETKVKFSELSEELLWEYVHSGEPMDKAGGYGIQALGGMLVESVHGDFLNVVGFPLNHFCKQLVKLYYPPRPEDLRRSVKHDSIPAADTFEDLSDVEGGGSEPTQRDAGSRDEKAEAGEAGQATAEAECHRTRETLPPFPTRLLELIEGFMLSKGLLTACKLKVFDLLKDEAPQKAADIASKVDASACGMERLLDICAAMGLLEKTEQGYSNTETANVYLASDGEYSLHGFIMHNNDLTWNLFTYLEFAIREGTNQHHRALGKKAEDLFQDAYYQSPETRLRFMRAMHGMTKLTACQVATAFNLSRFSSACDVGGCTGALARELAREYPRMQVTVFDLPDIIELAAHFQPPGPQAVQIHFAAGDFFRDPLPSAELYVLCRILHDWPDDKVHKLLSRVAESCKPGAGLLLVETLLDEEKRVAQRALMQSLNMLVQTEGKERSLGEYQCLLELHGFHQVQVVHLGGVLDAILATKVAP
UniProt P24539: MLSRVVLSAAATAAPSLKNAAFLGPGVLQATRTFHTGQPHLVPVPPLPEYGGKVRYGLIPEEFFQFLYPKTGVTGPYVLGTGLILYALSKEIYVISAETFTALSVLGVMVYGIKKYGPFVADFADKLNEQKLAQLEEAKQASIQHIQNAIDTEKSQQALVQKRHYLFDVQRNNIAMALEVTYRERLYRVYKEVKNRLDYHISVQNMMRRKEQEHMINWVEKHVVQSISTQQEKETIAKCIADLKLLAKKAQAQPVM
UniProt P61421, whole entry, looked up: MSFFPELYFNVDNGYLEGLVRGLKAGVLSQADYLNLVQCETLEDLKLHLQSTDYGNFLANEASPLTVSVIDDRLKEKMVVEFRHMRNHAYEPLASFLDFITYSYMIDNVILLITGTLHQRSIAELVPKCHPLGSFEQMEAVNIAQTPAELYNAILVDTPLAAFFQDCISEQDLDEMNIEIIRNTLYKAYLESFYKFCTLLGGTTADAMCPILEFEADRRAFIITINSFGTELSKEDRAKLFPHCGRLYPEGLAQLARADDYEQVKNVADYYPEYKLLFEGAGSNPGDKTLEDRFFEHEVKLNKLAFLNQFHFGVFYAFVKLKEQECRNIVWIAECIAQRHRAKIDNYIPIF
UniProt P08243: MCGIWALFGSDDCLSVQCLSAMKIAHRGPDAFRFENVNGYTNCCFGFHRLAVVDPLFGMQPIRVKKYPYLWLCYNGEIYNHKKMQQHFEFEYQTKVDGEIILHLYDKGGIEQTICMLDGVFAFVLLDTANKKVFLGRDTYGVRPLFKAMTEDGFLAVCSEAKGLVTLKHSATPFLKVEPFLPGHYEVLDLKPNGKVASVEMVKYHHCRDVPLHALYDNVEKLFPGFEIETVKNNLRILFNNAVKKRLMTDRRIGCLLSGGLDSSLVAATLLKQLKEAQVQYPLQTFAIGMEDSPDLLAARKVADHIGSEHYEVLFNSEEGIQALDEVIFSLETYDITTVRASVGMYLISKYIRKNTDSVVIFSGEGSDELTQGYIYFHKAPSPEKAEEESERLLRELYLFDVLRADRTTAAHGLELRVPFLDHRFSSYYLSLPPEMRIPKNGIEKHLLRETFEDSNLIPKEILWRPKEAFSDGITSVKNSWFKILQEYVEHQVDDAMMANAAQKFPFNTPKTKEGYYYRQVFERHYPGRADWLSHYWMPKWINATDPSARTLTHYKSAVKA
UniProt P30049: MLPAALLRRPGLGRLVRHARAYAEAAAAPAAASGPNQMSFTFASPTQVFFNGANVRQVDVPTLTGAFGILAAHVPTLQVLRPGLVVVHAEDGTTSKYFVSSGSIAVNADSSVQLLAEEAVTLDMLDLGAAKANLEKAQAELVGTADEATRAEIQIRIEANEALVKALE
UniProt Q13535: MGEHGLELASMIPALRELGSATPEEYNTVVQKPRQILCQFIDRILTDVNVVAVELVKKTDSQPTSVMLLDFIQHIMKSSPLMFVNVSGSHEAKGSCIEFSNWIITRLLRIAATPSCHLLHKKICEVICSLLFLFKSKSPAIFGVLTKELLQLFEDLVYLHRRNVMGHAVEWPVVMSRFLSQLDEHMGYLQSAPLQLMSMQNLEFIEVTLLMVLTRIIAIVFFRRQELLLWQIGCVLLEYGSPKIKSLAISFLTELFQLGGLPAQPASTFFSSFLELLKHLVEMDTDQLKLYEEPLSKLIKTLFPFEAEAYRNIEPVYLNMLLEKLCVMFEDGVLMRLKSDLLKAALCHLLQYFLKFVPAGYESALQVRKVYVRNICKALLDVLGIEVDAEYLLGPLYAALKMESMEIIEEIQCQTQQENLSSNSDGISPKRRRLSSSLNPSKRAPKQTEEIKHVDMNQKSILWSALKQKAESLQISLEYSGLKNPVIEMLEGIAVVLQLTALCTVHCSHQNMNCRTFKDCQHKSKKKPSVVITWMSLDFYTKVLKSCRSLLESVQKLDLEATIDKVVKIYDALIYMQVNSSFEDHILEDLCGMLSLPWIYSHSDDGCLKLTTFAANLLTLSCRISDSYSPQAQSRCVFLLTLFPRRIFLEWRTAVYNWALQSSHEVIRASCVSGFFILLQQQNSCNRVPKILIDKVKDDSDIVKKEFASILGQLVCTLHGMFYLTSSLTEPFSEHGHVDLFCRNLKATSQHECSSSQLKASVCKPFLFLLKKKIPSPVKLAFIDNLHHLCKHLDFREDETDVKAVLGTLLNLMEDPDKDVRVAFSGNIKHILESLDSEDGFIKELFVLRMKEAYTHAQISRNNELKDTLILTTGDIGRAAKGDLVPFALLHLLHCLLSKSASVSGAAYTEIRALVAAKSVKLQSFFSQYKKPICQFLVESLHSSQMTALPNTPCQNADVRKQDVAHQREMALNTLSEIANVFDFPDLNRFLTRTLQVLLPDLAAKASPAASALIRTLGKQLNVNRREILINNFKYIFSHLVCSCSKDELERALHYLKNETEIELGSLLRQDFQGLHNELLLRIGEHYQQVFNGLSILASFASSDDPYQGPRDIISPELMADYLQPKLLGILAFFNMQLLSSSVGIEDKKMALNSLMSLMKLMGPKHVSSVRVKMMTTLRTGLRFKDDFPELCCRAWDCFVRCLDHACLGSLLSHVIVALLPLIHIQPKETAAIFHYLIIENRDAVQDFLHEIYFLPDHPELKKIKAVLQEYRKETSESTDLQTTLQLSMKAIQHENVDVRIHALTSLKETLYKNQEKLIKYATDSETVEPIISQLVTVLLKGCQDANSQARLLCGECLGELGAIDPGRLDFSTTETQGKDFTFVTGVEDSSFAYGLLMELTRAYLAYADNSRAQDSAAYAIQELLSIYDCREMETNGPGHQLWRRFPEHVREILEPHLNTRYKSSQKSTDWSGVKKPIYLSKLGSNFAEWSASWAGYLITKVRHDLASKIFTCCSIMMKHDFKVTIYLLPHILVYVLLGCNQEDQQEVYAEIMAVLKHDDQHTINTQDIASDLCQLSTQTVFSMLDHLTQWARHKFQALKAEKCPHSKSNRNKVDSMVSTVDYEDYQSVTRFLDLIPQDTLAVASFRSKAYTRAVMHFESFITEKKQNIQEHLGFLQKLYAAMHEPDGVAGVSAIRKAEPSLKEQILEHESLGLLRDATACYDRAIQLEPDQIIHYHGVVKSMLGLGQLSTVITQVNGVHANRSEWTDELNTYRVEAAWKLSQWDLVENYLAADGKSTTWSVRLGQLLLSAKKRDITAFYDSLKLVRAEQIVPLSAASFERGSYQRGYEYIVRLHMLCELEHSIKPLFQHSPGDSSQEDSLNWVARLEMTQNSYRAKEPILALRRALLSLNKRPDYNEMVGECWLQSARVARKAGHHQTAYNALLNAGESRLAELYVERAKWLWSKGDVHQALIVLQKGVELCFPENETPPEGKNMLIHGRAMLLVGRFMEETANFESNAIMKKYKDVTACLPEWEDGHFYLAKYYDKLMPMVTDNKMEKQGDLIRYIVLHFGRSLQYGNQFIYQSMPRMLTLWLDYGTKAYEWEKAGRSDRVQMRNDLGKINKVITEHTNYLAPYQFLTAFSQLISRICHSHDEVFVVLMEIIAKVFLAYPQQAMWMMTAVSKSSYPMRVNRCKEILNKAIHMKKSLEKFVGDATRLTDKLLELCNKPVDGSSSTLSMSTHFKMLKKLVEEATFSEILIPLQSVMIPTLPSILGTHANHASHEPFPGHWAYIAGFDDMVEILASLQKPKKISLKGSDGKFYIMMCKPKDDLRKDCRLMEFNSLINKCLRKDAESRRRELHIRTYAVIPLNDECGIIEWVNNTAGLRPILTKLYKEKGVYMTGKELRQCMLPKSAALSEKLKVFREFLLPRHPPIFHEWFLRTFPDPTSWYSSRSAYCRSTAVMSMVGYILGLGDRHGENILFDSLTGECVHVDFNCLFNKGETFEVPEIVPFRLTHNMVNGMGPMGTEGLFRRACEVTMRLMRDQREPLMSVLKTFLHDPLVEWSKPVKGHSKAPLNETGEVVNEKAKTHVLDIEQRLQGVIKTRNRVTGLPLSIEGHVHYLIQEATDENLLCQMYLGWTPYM
UniProt P23634: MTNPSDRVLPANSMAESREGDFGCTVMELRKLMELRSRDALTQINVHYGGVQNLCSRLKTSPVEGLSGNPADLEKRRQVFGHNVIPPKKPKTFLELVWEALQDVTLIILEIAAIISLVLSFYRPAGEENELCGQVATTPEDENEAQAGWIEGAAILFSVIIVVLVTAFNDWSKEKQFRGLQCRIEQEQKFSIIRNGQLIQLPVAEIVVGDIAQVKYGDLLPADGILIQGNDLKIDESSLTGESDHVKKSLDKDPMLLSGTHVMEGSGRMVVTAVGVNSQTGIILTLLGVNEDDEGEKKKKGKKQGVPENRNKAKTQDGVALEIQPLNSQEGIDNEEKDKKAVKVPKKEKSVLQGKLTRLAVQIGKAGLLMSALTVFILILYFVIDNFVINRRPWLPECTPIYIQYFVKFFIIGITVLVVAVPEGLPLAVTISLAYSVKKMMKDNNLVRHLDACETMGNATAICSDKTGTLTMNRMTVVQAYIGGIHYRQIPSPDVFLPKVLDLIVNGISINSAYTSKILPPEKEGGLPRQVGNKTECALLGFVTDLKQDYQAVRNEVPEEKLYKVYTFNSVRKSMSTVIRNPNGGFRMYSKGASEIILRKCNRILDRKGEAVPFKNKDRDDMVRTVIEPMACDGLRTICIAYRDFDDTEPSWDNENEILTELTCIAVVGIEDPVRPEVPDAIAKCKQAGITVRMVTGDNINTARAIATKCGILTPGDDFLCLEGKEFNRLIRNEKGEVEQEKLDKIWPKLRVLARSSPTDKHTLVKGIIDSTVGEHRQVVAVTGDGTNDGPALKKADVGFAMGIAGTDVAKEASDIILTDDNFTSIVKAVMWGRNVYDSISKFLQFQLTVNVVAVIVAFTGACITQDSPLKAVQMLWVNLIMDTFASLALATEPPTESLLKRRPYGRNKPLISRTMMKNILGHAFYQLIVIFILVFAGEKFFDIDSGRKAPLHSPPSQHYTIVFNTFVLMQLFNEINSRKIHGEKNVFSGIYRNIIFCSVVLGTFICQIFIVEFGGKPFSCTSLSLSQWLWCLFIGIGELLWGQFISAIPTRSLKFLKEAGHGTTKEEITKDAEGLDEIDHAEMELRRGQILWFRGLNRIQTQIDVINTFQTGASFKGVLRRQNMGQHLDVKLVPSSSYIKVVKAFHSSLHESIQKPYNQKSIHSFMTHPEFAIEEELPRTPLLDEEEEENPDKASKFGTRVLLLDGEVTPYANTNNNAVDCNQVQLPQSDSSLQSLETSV

How the values were obtained:
Experiment in all cases: log2 fold change, soluble protein after heating vs DMSO (PISA); higher = thermal stabilisation; K562 lysate, 10 uM; active = over 0.2 and 3.5 SD of the protein, either way, in both replicates (recomputed)
[1] = compound: CCCS(=O)(=O)Nc1ccc(F)c(C(=O)c2c[nH]c3ncc(-c4ccc(Cl)cc4)cc23)c1F [vemurafenib]
Outline: (§1)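 The values are log-two fold changes in thermal stability compared with solvent controls and come from duplicates. They were obtained by TMTpro 16plex LC-MS/MS, with channel sums equalised, on the supernatant after 21,000xg for 90 min. That supernatant came from crude K562 extract at 1 mg/mL protein treated with 10 μM compound for 30 min, heated for 3 min across 48°C-58°C, pooled and brought to 0.5% NP-40 at 4°C.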

[2] = compound: CCCS(=O)(=O)Nc1ccc(F)c(C(=O)c2c[nH]c3ncc(Cl)cc23)c1F
Outline: as §1

[3] = compound: CCN(CCCOc1ccc2c(Nc3cc(CC(=O)Nc4cccc(F)c4)[nH]n3)ncnc2c1)CCOP(=O)(O)O [barasertib]
Outline: as §1

[4] = compound: CC[C@@H]1C(=O)N(C)c2cnc(Nc3ccc(C(=O)NC4CCN(C)CC4)cc3OC)nc2N1C1CCCC1
Outline: as §1

[5] = compound: CC[C@@H]1C(=O)N(C)c2cnc(Nc3ccc(C(=O)N[C@H]4CC[C@H](N5CCN(CC6CC6)CC5)CC4)cc3OC)nc2N1C(C)C [volasertib]
Outline: as §1

[6] = compound: CCn1c(C(=O)N(C2CC2)C2CC2)cc2c3c(ncn3C)c(Nc3cc(C)n(C)n3)nc21
Outline: as §1

[7] = compound: CCn1cc(-c2ccnc3[nH]c(-c4cccc(CN(C)C)c4)cc23)c(-c2ccc(NC(=O)N(C)C)cc2)n1
Outline: as §1

[8] = compound: CN1CCC(CNc2ccc3ncc(-c4cccc(OC(F)(F)F)c4)n3n2)CC1
Outline: as §1

[9] = compound: CN1CCN(CCOc2cc(OC3CCOCC3)c3c(Nc4c(Cl)ccc5c4OCO5)ncnc3c2)CC1 [saracatinib]
Outline: as §1

[10] = compound: CN1CCN(c2nc(C3=C(c4c[nH]c5ccccc45)C(=O)NC3=O)c3ccccc3n2)CC1 [sotrastaurin]
Outline: as §1

[11] = compound: CN1CC[C@H](c2c(O)cc(O)c3c(=O)cc(-c4ccccc4Cl)oc23)[C@H](O)C1 [alvocidib]
Outline: as §1

[12] = compound: CN1CCc2c(c3ccccc3n2Cc2ccc(C(=O)NO)cc2)C1 [Tubastatin A]
Outline: as §1

[13] = compound: CNC(=O)C1=CC=CC=C1NC2=NC(=NC=C2Cl)NC3=C(C=C(C=C3)N4CCOCC4)OC
Outline: as §1

[14] = compound: CNC(=O)c1ccc(Nc2ncc(C(F)(F)F)c(NCc3nccnc3N(C)S(C)(=O)=O)n2)cc1 [defactinib]
Outline: as §1

[15] = compound: CNc1nc(-c2ccc3c(N)n[nH]c3c2)cc(N2C[C@@H](C(=O)NC3CCCCC3)CC[C@H]2C)n1
Outline: as §1

[16] = compound: COC(=O)N[C@@H](C)CNc1nccc(-c2cn(C(C)C)nc2-c2cc(Cl)cc(NS(C)(=O)=O)c2F)n1 [encorafenib]
Outline: as §1

[17] = compound: COC(=O)[C@H](CCSC)NC(=O)C1=C(C=C(C=C1)NC[C@H](CS)N)C2=CC=CC=C2
Outline: as §1

[18] = compound: COc1cc(Nc2ncc3c(n2)-c2ccc(Cl)cc2C(c2c(F)cccc2OC)=NC3)ccc1C(=O)O [alisertib]
Outline: as §1

[19] = compound: COc1cc2nc(-c3cc(F)ccc3O)nc(N[C@@H]3CNC[C@H]3C(C)(C)O)c2cc1OC
Outline: as §1

[20] = compound: COc1cc2ncnc(Nc3ccc(F)c(Cl)c3)c2cc1OCCCN1CCOCC1 [gefitinib]
Outline: as §1

Measured: log2 fold change

AURKAIP1 (UniProt Q9NWT8)
inactive: [1] 0.043 | [2] -0.124 | [3] 0.055 | [4] 0.071 | [5] 0.043 | [6] -0.129 | [7] -0.027 | [8] 0.129 | [9] 0.023 | [10] -0.055 | [11] 0.026 | [12] 0.219 | [13] -0.02 | [14] 0.083 | [15] 0.072 | [16] 0.077 | [17] -0.057 | [18] 0.067 | [19] 0.098 | [20] -0.032

ATP23 (UniProt Q9Y6H3)
inactive: [1] 0.03 | [2] 0.031 | [3] 0.062 | [4] 0.022 | [5] 0.008 | [6] 0.077 | [7] 0.162 | [8] -0.251 | [9] 0.057 | [10] 0.038 | [11] 0.117 | [12] -0.116 | [13] 0.042 | [14] 0.029 | [15] 0.064 | [16] 0.01 | [17] 0.048 | [18] -0.076 | [19] -0.037 | [20] 0.001

ASF1A (UniProt Q9Y294)
inactive: [1] -0.06 | [2] -0.003 | [3] -0.064 | [4] -0.013 | [5] -0.02 | [6] 0.05 | [7] 0.016 | [8] 0.06 | [9] 0.011 | [10] -0.006 | [11] -0.035 | [12] -0.016 | [13] 0.012 | [14] -0.022 | [15] -0.043 | [16] 0.021 | [17] -0.026 | [18] -0.025 | [19] 0.027 | [20] 0.032

ATXN10 (UniProt Q9UBB4)
inactive: [1] 0.002 | [2] 0.004 | [3] -0.017 | [4] 0 | [5] -0.018 | [6] -0.017 | [7] 0.055 | [8] -0.028 | [9] -0.009 | [10] 0.003 | [11] 0.03 | [12] -0.001 | [13] -0.002 | [14] -0.005 | [15] -0.009 | [16] 0.027 | [17] -0.031 | [18] 0.013 | [19] -0.006 | [20] -0.017

ATP1A3 isoform 3 (UniProt P13637)
inactive: [1] 0.034 | [2] 0.006 | [3] -0.003 | [4] 0.039 | [5] 0.01 | [6] -0.034 | [7] -0.042 | [8] 0.013 | [9] -0.008 | [10] 0.008 | [11] -0.059 | [12] 0.041 | [13] -0.031 | [14] -0.011 | [15] 0.089 | [16] -0.005 | [17] -0.018 | [18] -0.005 | [19] 0.031 | [20] 0.048

ATP11A (UniProt P98196)
inactive: [1] -0.035 | [2] -0.015 | [3] 0.006 | [4] 0.019 | [5] 0.026 | [6] 0 | [7] -0.116 | [8] 0.024 | [9] -0.01 | [10] 0.063 | [11] -0.002 | [12] -0.047 | [13] -0.021 | [14] -0.017 | [15] -0.022 | [16] 0.028 | [17] -0.065 | [18] -0.083 | [19] 0.01 | [20] 0.031

ATN1 (UniProt P54259)
inactive: [1] 0.006 | [2] -0.063 | [3] 0.072 | [4] 0.105 | [5] -0.053 | [6] -0.043 | [7] -0.039 | [8] 0.091 | [9] -0.004 | [10] 0.008 | [11] -0.039 | [12] 0.037 | [13] -0.075 | [14] -0.024 | [15] 0.059 | [16] -0.005 | [17] 0.02 | [18] -0.059 | [19] 0.042 | [20] 0.078

ATG4C (UniProt Q96DT6)
inactive: [1] -0.07 | [2] 0.022 | [3] -0.012 | [4] -0.022 | [5] -0.079 | [6] 0.086 | [7] 0.108 | [8] 0.004 | [9] -0.042 | [10] 0.026 | [11] -0.04 | [12] -0.019 | [13] -0.005 | [14] 0.021 | [15] -0.043 | [16] 0.005 | [17] 0.158 | [18] -0.072 | [19] 0.005 | [20] 0.023

ASMTL (UniProt O95671)
inactive: [1] 0.003 | [2] 0.019 | [3] 0.031 | [4] -0.036 | [5] -0.023 | [6] -0.001 | [7] -0.016 | [8] 0.046 | [9] 0.026 | [10] 0.056 | [11] -0.03 | [12] -0.118 | [13] 0.011 | [14] -0.011 | [15] -0.022 | [16] -0.006 | [17] 0.116 | [18] 0.004 | [19] 0.025 | [20] 0.042

ATP5PB (UniProt P24539)
inactive: [1] 0.012 | [2] -0.013 | [3] 0.035 | [4] 0.022 | [5] 0.025 | [6] 0 | [7] 0.057 | [8] -0.018 | [9] 0.007 | [10] -0.05 | [11] 0 | [12] 0.045 | [13] 0 | [14] 0.014 | [15] 0.007 | [16] -0.007 | [17] -0.067 | [18] -0.002 | [19] -0.012 | [20] 0.014

ATP6V0D1 (UniProt P61421)
inactive: [1] -0.037 | [2] -0.006 | [3] 0.186 | [4] -0.033 | [5] 0.043 | [6] 0.014 | [7] -0.052 | [8] -0.025 | [9] -0.028 | [10] -0.021 | [11] 0.013 | [12] 0.092 | [13] -0.004 | [14] 0.113 | [15] -0.044 | [16] 0.017 | [17] -0.039 | [18] 0.055 | [19] -0.041 | [20] -0.096

ASNS (UniProt P08243)
inactive: [1] -0.002 | [2] -0.002 | [3] 0.025 | [4] -0.056 | [5] -0.047 | [6] 0.005 | [7] 0.031 | [8] -0.03 | [9] 0.022 | [10] 0.014 | [11] 0.019 | [12] -0.025 | [13] -0.036 | [14] 0.006 | [15] 0.027 | [16] -0.009 | [17] -0.12 | [18] 0.019 | [19] 0.009 | [20] 0.004

Two successive records out of the list so far, for reference:
ATP6V0D1 (UniProt P61421)
inactive: [1] -0.037 | [2] -0.006 | [3] 0.186 | [4] -0.033 | [5] 0.043 | [6] 0.014 | [7] -0.052 | [8] -0.025 | [9] -0.028 | [10] -0.021 | [11] 0.013 | [12] 0.092 | [13] -0.004 | [14] 0.113 | [15] -0.044 | [16] 0.017 | [17] -0.039 | [18] 0.055 | [19] -0.041 | [20] -0.096

ASNS (UniProt P08243)
inactive: [1] -0.002 | [2] -0.002 | [3] 0.025 | [4] -0.056 | [5] -0.047 | [6] 0.005 | [7] 0.031 | [8] -0.03 | [9] 0.022 | [10] 0.014 | [11] 0.019 | [12] -0.025 | [13] -0.036 | [14] 0.006 | [15] 0.027 | [16] -0.009 | [17] -0.12 | [18] 0.019 | [19] 0.009 | [20] 0.004

Remaining list, next part.

ATP5F1D (UniProt P30049)
inactive: [1] 0.08 | [2] -0.032 | [3] 0.188 | [4] -0.001 | [5] 0.028 | [6] 0.037 | [7] -0.101 | [8] -0.008 | [9] -0.04 | [10] -0.003 | [11] 0.027 | [12] 0.085 | [13] -0.027 | [14] -0.035 | [15] 0.027 | [16] -0.071 | [17] -0.018 | [18] -0.018 | [19] 0.003 | [20] -0.01

ATR (UniProt Q13535)
inactive: [1] 0.059 | [2] 0.013 | [3] 0 | [4] 0.017 | [5] -0.13 | [6] 0.018 | [7] -0.307 | [8] 0.337 | [9] 0.018 | [10] 0.081 | [11] -0.134 | [12] -0.067 | [13] 0.029 | [14] -0.07 | [15] -0.001 | [16] 0.045 | [17] -0.193 | [18] 0.115 | [19] 0.077 | [20] 0.052

ATP5MD (UniProt Q96IX5)
inactive: [1] -0.103 | [2] -0.045 | [3] -0.047 | [4] -0.053 | [5] 0.031 | [6] 0.018 | [7] -0.31 | [8] 0.048 | [9] 0.047 | [10] -0.043 | [11] -0.072 | [12] -0.047 | [13] 0.107 | [14] 0.106 | [15] 0.085 | [16] 0.059 | [17] 0.241 | [18] -0.026 | [19] 0 | [20] -0.116

ATP2B4 (UniProt P23634)
inactive: [1] 0.002 | [2] -0.002 | [3] 0.026 | [4] -0.027 | [5] -0.004 | [6] -0.019 | [7] -0.185 | [8] 0.145 | [9] 0.024 | [10] 0.009 | [11] -0.116 | [12] 0.015 | [13] -0.006 | [14] -0.043 | [15] 0.001 | [16] 0.021 | [17] -0.041 | [18] -0.104 | [19] 0.009 | [20] 0.023
